# Library screen at single concentrations

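Growth of Mycobacterium tuberculosis over 3 days (7H9 medium with glucose and tyloxapol); the read-out is not stated. Compounds at 50 µM. The record gives no direction; compounds that gave an IC50 in retests scored well above the rest, so higher reads as more growth inhibition. Of about 69,000 compounds tested this way, about 760 (1.1%) reached 50% or more in at least one test.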

The filed quantity is “Percent Effect” (%). The controls that fix the scale are not given in the record; negative values are as filed. Compounds were drawn at random from those tested, without regard to their results. Two or more numbers in one place are separate tests of the same structure; such repeats can differ widely.

For Cc1cnc2cc(C3CCN(C(=O)c4ccncc4)CC3)[nH]c2n1 the result was -24.85%.
For CNC(=O)CN1CCN(C(=O)Nc2ccc(Cl)cc2F)CC1 the result was 33.54%.
For CN(c1ccc(F)cc1)S(=O)(=O)c1cc2c(c(C(=O)O)c1)OCCO2 the result was -44.08% and -2.565%.
For [H][C@@]12CCN(CC3CC3)C[C@]1(C(=O)NCCc1ccccn1)CCO2 the result was 13.87%.
For Cc1c(F)cccc1S(=O)(=O)NC(C)(C)CN.Cl the result was 33% and 0.3099%.
For O=C(CSC1CCc2ccccc2NC1=O)NCCc1ccc(O)cc1 (centres undefined) the result was -13.24%.
For Cl.O=C(NCc1ccc(Cl)cc1)C1=NOC2(CCNC2)C1 (centres undefined) the result was -31.23%.
For COC1CCN(C(=O)Cn2ncc(N3CCCCC3)cc2=O)C1 (centres undefined) the result was -27.19%.
For COC(=O)C(NC(=O)c1ccco1)c1cc(F)ccc1F (centres undefined) the result was -5.645%.
For Cn1cc(N2CCC3(CCN(C(=O)[C@H]4CCCO4)C3)C2=O)cn1 (some centres undefined) the result was -27.94%.
For CC(C)c1nnc(NC(=O)Cc2csc(-c3nnc[nH]3)n2)s1 the result was -17.56% and -5.142%.
For COc1ccc(C(C)NC(=O)Cn2ccc(=O)n(C)c2=O)cc1OC (centres undefined) the result was -5.642%.
For CC(C)N(Cc1cccnc1)C(=O)CSc1ccc(C#N)cc1 the result was -2.426%.
For CC(C)C1CN(c2ncccn2)CCC(=O)N1Cc1ccc(F)cc1 (centres undefined) the result was -1.332% and 20.9%.
For CCS(=O)(=O)N1CCC2(CCCN(Cc3cc(OC)ccc3F)C2)C1 (centres undefined) the result was -4.535% and -25.18%.
For CN1CCc2onc(Cn3cccc3)c2C1.O=C(O)C(F)(F)F the result was 13.05%.
For CC(C)n1cnnc1CN(C)C(=O)c1ccccc1-n1cncn1 the result was -10.28%.
For O=C(NCCNC(=O)C1Cc2cc(F)ccc2O1)C1CCCCC1 (centres undefined) the result was 8.076%.
For CCN(C)c1ncnc2c1CCN(S(=O)(=O)c1ccccc1)CC2.O=C(O)C(F)(F)F the result was 10.38%.
For COc1cccc(-n2nnc(C(=O)N3CCCCCC3)c2C)c1 the result was -5.906%.
For Cc1csc(N2CCN(CC(=O)Nc3nncs3)CC2C)n1 (centres undefined) the result was 12.95%.
For CN(CCN1CCOCC1)C(=O)C1(c2ccc(F)cc2F)CCC1 the result was -11.2%.
For O=C(O)c1csc(S(=O)(=O)Nc2cccc(OCC(F)(F)F)c2)c1 the result was 7.925%.
For NC(=O)C1CCN(CCc2ccc(NCc3cscn3)cc2)CC1 the result was 18.84% and 1.314%.
For O=C(c1sccc1-n1cnnn1)N1CCC(Cc2ccccc2)CC1 the result was -19.03%.
For Cc1nnc(NCCc2coc(-c3ccc(F)cc3)n2)c(C#N)c1C the result was 6.087%.
For Cc1ccccc1C(=O)CN1C(=O)c2ccccc2CS1(=O)=O the result was -2.353%.
For Cc1nc(CN2CCN(C(=O)CCc3cccnc3)CC2)no1 the result was -7.555% and 4.019%.
For Cc1ccoc1C(=O)N1CC[C@@]2(C[C@H](NS(C)(=O)=O)CCO2)C1 the result was -6.288%.
For CC(NC(=O)NCc1ccoc1)c1ccc2c(c1)CCC(=O)N2 (centres undefined) the result was 13.93%.
For CS(=O)(=O)NCCCNC(=O)c1cccc(-n2cccc2)c1 the result was 39.24% and 10.62%.
For CC(C)S(=O)(=O)NCc1cccnc1Oc1ccc(F)cc1F the result was -0.8967%.
For COc1ccc(C)cc1NC(=O)Nc1cnc(N2CCOCC2)nc1 the result was 31.97%.
For O=C(c1ccc(C2CCCO2)s1)N1CCCOCC1 (centres undefined) the result was -11.04% and 2.337%.
For O=C(CSc1ccc2c(c1)OCCO2)NS(=O)(=O)C1CCCCC1 the result was -16.25% and 3.86%.
For Cc1ccc(C)c2c(O)cc(CN3CCNC(=O)C3C)nc12 (centres undefined) the result was -14.46%.
For CCOc1ncccc1CNC(=O)N1CCCC1c1cc(C)no1 (centres undefined) the result was -10.02%.
For OC(COc1ccc(F)cc1)CN1CCC(Cn2cccn2)CC1 (centres undefined) the result was 19.13%.
For O=C(Nc1ccccc1F)C1CSCN1C(=O)CCc1ccco1 (centres undefined) the result was 1.987%.
For [H][C@@]12COC[C@]1(COCc1cccc(C)n1)CN(C(=O)c1ccsc1)C2 the result was 12.75%.
For COCC(=O)N1CCC(c2nccnc2Oc2cccnc2C)CC1 the result was 6.889%.
For O=C1OCCCN1Cc1nc(-c2ccc(N3CCCCC3)cc2)no1 the result was 20.66% and 17.93%.
For CCc1nc(N)nc(N(C)Cc2nncn2CCOC)c1C the result was -26.75%.
For Cc1ccc(F)c(S(=O)(=O)NCc2cccc(C(=O)N3CCCC3)c2)c1 the result was -2.336%.
For COCCOc1ccc(CNc2nc3ccccc3o2)cn1 the result was -17.36%.
For [H][C@@]12CCN(Cc3cccs3)C[C@@]1([H])O[C@H](c1ccnc(C)n1)C2 the result was 8.602% and 14.41%.
For Cc1ccc(-c2cn[nH]c2C2CCCN(c3cc(N)ncn3)C2)cc1 (centres undefined) the result was 14.88%.
For O=C(O)C(F)(F)F.c1cnc(NC2COC3(CCN(Cc4ccoc4)CC3)C2)nc1 (centres undefined) the result was -9.991%.
For O=C(O)C(F)(F)F.[H][C@@]12COC[C@]1(CNC(=O)c1ccsc1)CN(Cc1cnn(C)c1)C2 the result was -7.486%.
For CC(=O)N(C)C1CCN(C(=O)NCC(C)Cc2cccs2)CC1 (centres undefined) the result was 6.504%.
For COCCN1CCC(N(Cc2noc(C3CC3)n2)C(C)=O)C1 (centres undefined) the result was -34.09%.

From ChEMBL document CHEMBL3988442, “University of Dundee, Small-Polar-MMV Screening Library” (2021).